Three substances from paper PMC6448136 can be followed below.

Protein sequences, listed by entry. Tags and fused reporters are not part of them. Lines headed by an entry give the natural chain unless they say otherwise; changes in a name come on top. Chains listed by the source or under a name are the forms on record and can include a tag or linker. Residues count along the entry.
UniProt Q13153, residues 70-545: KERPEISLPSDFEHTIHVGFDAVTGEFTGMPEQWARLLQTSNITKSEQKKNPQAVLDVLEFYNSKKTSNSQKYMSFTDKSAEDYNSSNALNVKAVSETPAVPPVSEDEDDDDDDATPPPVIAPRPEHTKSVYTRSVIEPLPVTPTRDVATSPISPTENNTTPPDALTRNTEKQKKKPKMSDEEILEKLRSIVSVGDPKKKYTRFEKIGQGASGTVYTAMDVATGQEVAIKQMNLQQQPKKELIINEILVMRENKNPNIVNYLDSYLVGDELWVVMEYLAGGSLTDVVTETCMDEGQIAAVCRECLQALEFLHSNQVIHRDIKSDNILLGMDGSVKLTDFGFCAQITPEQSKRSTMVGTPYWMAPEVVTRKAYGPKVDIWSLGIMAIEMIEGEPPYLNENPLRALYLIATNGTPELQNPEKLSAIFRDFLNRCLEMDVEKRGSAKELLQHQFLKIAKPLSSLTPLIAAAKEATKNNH
PAK3 ΔN, unphosphorylated (O75914-2, form named): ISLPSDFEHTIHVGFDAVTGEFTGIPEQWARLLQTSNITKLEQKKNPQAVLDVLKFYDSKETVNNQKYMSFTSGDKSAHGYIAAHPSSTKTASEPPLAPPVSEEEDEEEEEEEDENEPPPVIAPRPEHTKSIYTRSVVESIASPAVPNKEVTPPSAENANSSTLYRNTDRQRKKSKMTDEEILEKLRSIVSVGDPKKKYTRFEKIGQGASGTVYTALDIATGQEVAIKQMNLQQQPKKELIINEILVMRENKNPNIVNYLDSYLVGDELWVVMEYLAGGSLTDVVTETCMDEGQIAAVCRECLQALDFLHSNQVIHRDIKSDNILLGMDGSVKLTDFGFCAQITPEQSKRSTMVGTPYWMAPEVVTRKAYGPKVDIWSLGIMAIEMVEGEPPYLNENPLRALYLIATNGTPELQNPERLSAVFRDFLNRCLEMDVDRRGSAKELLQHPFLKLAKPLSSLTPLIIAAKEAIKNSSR
full-length PAK3, auto-phosphorylated (O75914-2, form named): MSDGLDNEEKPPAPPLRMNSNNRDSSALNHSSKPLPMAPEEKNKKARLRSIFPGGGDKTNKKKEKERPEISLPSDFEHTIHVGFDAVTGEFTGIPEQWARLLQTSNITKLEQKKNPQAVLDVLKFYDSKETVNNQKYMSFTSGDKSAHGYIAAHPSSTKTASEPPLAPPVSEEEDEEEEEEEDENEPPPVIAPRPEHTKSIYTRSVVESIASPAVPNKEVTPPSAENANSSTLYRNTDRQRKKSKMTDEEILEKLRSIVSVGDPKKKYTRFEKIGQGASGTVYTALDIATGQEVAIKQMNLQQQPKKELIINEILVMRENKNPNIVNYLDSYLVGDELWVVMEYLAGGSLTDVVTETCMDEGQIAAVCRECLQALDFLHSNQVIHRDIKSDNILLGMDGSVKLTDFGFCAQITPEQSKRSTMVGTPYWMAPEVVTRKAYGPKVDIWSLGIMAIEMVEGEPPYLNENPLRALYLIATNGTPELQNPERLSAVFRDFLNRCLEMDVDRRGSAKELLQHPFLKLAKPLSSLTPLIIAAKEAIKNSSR

No constants are given. Whether binding was seen depends on the method and setting.

The target of experiment [1] is PAK1 ΔN, unphosphorylated (human) (UniProt Q13153). The experiment is described as follows: HPLC-SAXS; SEC-coupled small angle X-ray scattering, Shodex 403 column, 15 °C, 25 mM HEPES pH 7.5, 150–200 mM NaCl, 0.5 mM TCEP, 2–2.5% glycerol, 1% sucrose; samples 5–32 mg/ml; mass by the QR method; both purified.
Experiment [2] shares this target. Nature of the experiment: SEC + AUC; Stokes radius from analytical SEC combined with the sedimentation coefficient from AUC-SV in the Svedberg equation; both purified.
The target is the same in experiment [3]. Nature of the experiment: AUC; sedimentation velocity (AUC-SV), 4 °C, 50 mM HEPES pH 7.5, 150 mM NaCl, 0.5–1.0 mg/ml, 40,000 rpm, c(s) analysis in SEDFIT; both purified.
The target in experiment [4] is PAK3 ΔN, unphosphorylated (human) (UniProt O75914). Nature of the experiment: HPLC-SAXS; SEC-coupled small angle X-ray scattering, Shodex 403 column, 15 °C, 25 mM HEPES pH 7.5, 150–200 mM NaCl, 0.5 mM TCEP, 2–2.5% glycerol, 1% sucrose; samples 5–32 mg/ml; mass by the QR method; both purified.
For experiment [5] the target is unchanged. Nature of the experiment: SEC + AUC; Stokes radius from analytical SEC combined with the sedimentation coefficient from AUC-SV in the Svedberg equation; both purified.
Experiment [6] has the same target. The experiment is described as follows: AUC; sedimentation velocity (AUC-SV), 4 °C, 50 mM HEPES pH 7.5, 150 mM NaCl, 0.5–1.0 mg/ml, 40,000 rpm, c(s) analysis in SEDFIT; both purified.
For experiment [7], the target named is full-length PAK3, auto-phosphorylated (human) (UniProt O75914). Nature of the experiment: HPLC-SAXS; SEC-coupled small angle X-ray scattering, Shodex 403 column, 15 °C, 25 mM HEPES pH 7.5, 150–200 mM NaCl, 0.5 mM TCEP, 2–2.5% glycerol, 1% sucrose; samples 5–32 mg/ml; mass by the QR method; both purified.

Regarding “PAK1 ΔN, unphosphorylated (from UniProt Q13153 70-545) (domain or fragment)”, the binding result is reported as “no binding (tested: 5–32 mg/ml)” in experiment [1], “no binding” in experiment [2] and “no binding (tested: 0.5–1.0 mg/ml)” in experiment [3].

Turning to “PAK3 ΔN, unphosphorylated (from UniProt O75914-2 70-544) (domain or fragment)”, the binding result in experiment [4] is “no binding (tested: 5–32 mg/ml)”; in experiment [5] it was “no binding”; in experiment [6], “no binding (tested: 0.5–1.0 mg/ml)”.

Turning to “full-length PAK3, auto-phosphorylated (from UniProt O75914-2 1-544) (enzyme)”, the binding result in experiment [7] is given as “no binding (tested: 5–32 mg/ml)”.
